From article PMC3026819
These are yes or no findings as the source states them, for the method shown. In cells and extracts the contact can be indirect. Some entries that bind do so weakly or less than the wild type.

Amino acid sequences for entries named in this document (tags omitted).
UniProt P49407: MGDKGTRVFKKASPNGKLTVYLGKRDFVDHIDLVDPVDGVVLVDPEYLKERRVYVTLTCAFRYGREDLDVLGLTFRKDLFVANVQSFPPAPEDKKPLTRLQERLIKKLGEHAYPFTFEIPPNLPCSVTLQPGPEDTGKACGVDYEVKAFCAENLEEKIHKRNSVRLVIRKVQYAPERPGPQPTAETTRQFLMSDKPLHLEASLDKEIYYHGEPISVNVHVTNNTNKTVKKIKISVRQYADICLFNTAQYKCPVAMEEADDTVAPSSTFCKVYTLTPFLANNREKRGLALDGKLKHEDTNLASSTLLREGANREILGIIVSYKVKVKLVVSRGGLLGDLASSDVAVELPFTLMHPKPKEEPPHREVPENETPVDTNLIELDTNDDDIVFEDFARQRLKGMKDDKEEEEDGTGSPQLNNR
UniProt P04233: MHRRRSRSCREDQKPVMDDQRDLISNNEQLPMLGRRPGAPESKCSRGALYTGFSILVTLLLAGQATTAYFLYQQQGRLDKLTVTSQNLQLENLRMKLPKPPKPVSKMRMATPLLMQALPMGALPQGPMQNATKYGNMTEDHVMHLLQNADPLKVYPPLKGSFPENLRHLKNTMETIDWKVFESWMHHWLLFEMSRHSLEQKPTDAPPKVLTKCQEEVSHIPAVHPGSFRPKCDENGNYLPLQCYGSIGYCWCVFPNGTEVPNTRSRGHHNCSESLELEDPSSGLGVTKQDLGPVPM

Experiments:
[1] = biological target: β-arrestin1-GFP (human) (UniProt P49407); assay: co-IP; COS-7 cells co-transfected, stimulated with MIF (200 ng/ml) for 1 h; lysis in 10 mM Tris-HCl pH 7.4, 150 mM NaCl, 1 mM EDTA, 1 mM EGTA, 1% Triton X-100 plus 0.5% NP-40; 2 µg antibody 30 min at 4°C, Protein A/G beads 60 min; western blot; reciprocal
[2] = biological target: CD74-myc (human) (UniProt P04233); assay: as above
[3] = biological target: CD74-myc (human) (UniProt P04233); assay: co-IP; COS-7 cells co-transfected with ARRB1-GFP and CD74-myc for 36 h, without MIF stimulation; same lysis and immunoprecipitation; western blot

Row | Substance | binding [1] | binding [2] | binding [3]
1 | CD74-myc (from UniProt P04233 1-296) (receptor) | binds |  | 
2 | β-arrestin1-GFP (from UniProt P49407 1-418) |  | binds | no binding (condition: cells without MIF stimulation)
